{"sequences": {"note": "Protein sequences, listed by entry. Tags and fused reporters are not part of them.", "UniProt P13612, whole entry, looked up": "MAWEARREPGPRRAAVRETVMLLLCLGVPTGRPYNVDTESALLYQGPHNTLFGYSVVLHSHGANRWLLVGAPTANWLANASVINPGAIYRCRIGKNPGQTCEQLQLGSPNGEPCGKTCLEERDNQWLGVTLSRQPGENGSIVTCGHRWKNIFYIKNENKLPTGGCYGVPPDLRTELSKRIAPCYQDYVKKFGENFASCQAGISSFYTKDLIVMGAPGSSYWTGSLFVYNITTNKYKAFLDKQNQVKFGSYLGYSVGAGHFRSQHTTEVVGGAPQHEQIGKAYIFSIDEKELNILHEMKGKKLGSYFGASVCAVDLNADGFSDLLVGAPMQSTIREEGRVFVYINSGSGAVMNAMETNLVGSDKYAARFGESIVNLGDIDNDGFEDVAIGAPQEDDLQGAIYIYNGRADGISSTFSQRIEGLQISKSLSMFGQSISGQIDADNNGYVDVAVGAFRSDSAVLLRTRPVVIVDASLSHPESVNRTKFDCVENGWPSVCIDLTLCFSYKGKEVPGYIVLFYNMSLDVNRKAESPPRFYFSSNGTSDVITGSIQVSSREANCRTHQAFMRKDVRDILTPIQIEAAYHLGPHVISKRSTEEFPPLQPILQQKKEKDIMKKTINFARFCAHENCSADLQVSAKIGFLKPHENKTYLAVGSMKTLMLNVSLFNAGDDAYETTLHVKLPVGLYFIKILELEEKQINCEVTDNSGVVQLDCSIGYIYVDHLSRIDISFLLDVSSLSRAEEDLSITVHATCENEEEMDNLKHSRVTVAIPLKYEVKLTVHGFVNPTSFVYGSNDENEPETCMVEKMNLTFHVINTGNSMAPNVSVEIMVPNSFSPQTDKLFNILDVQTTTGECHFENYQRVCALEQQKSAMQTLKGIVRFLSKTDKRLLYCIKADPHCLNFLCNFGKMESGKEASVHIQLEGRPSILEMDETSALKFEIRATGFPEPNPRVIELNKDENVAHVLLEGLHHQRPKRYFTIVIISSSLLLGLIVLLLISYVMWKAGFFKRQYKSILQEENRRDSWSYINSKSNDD"}, "source": "PubChem BioAssay AID528", "about": "(NMMLSC, 2006)", "note": "In all, about 24,000 compounds went through this assay and fewer than 10 were called active. The inconclusive results got no clear call from the source; some entries with a clear call stand among them for comparison.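 How the source made its calls: active means fluorescent ligand binding to cells raised by more than 40% of the manganese-induced maximum; inconclusive means compound's own fluorescence above 85% of the ligand control signal; inactive means the rest.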"}
{"biological_target": "Integrin alpha-4 (Homo sapiens) (UniProt P13612)", "experiment": "enhancers of LDV-FITC binding to VLA-4 integrin, primary screen, Jurkat cells, flow cytometry (AID 528);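 on activation: 0% = ligand binding without compound and 100% = manganese-stimulated maximal binding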", "details": "stronger effect = higher value, screened at 10 µM (by protocol)"}
{"smiles": "CCOc1ccccc1C1C(C#N)=C(N)Nc2onc(-c3ccccc3)c21", "note": "(centres undefined)", "activation": "inactive: -8%"}
{"smiles": "C#CC(C)(C)NC(=O)CSc1nc2c(c(=O)n(C)c(=O)n2C)n1CCCC", "activation": "inactive: 8%"}
{"smiles": "COc1ccc(OCc2nnc3n2N=C(c2ccc(OC)cc2)CS3)cc1", "activation": "inconclusive"}
{"smiles": "CN(C)/C=N/c1c(C(=O)NCc2ccccc2)nnn1Cc1ccccc1", "activation": "inactive: 4%"}
{"smiles": "Cc1sc(NC(=O)CSc2nc(N)n(CC(=O)c3ccccc3)n2)c(C#N)c1C", "activation": "inactive: 1%"}
{"smiles": "COc1ccc2nc3oc(C(=O)NCc4cccs4)cc3cc2c1", "activation": "inconclusive"}
{"smiles": "O=C(c1ccc(CNc2c(N3CCCC3)c(=O)c2=O)cc1)N1CCc2ccccc2C1", "activation": "inactive: -2.7%"}
{"smiles": "CC(C)C(C(=O)Nc1ccc2c(c1)OCO2)N1C(=O)c2ccccc2C1=O", "note": "(centres undefined)", "activation": "inactive: 2%"}
{"smiles": "Nc1cc(-c2cccc(F)c2)nn1S(=O)(=O)c1cccc2nsnc12", "activation": "inconclusive"}
{"smiles": "Cc1ccc(Cc2c(C)nc3nc(SCC(=O)NCc4ccco4)nn3c2C)cc1", "activation": "inconclusive"}
{"smiles": "CN(C)CCCN1C(=O)c2oc3ccccc3c(=O)c2C1c1cccs1", "note": "(centres undefined)", "activation": "inconclusive"}
{"smiles": "Cc1c(C(=O)N2CCN(c3ccc(F)cc3)CC2)sc2nc(-c3ccccc3)cn12", "activation": "inactive: -9%"}
{"smiles": "COc1ccccc1N1CCN(c2nc3ccccc3n3nnnc23)CC1", "activation": "inconclusive"}
{"smiles": "COCC(=O)n1nc(NCc2ccc(OC)cc2)nc1NCc1ccc(OC)cc1", "activation": "inconclusive"}
{"smiles": "COc1cc2c(C(=O)N3CCCc4ccccc43)cn(C)c(=O)c2cc1OC", "activation": "inconclusive"}
{"smiles": "Cc1ccccc1-n1c(Cn2c(=O)sc3ccccc32)nnc1SCC(=O)NCC1CCCO1", "note": "(centres undefined)", "activation": "inactive: 0%"}
{"smiles": "O=C(CSc1nc2ccccc2c(=O)n1Cc1ccco1)N1CCCCCC1", "activation": "inconclusive"}
{"smiles": "COCCNC(=O)c1c(N)n(CCC2=CCCCC2)c2nc3ccccc3nc12", "activation": "inconclusive"}
{"smiles": "CCOc1cc(NC(=O)c2ccco2)c(OCC)cc1NC(=O)CCc1ccc(OC)cc1", "activation": "inactive: -4%"}
{"smiles": "O=C(c1cnc2n(c1=O)CCS2)N1CCCc2ccccc21", "activation": "inconclusive"}
{"smiles": "CCOc1ccc(-c2nnc3ccc(SC)nn23)cc1", "activation": "inactive: 4%"}
{"smiles": "O=C(CCCn1c(=S)[nH]c2ccccc2c1=O)N1CCCCC1", "activation": "inconclusive"}
{"smiles": "O=C(c1cccnc1)N1CCN(C(=O)c2ccccc2F)CC1", "activation": "inconclusive"}
{"smiles": "CCOC(=O)N1CCC(NC(=O)c2cc(S(=O)(=O)N3CCC4(CC3)OCCO4)ccc2F)CC1", "activation": "inconclusive"}
{"smiles": "O=C(CN1C(=O)C2C3C=CC(C3)C2C1=O)N1CCc2ccccc2C1", "note": "(centres undefined)", "activation": "inconclusive"}
{"smiles": "CCOc1ccc(N(CC(=O)Nc2cccc(Cl)c2)S(=O)(=O)c2c(C)noc2C)cc1", "activation": "inconclusive"}
{"smiles": "O=C(c1cnc(N2CCN(c3ncccn3)CC2)c2ccccc12)N1CCN(c2ccccn2)CC1", "activation": "inconclusive"}
{"smiles": "COc1cc(C(=O)Nc2cccc(-c3nc4cc(C)ccc4o3)c2)cc(OC)c1OC", "activation": "inconclusive"}
{"smiles": "Cc1cccc(NC(=O)CN2CCCN(S(=O)(=O)c3ccc(Br)s3)CC2)c1", "activation": "inconclusive"}
{"smiles": "CCOC(=O)N1CCN(C(=O)C2CCN(c3ncnc4c3sc3cccc(F)c34)CC2)CC1", "activation": "inconclusive"}
{"smiles": "Nc1nc2c(s1)CCc1c-2cnn1-c1ccccc1", "activation": "inconclusive"}
{"smiles": "COc1ccc(-c2noc(CCC(=O)N3CCN(Cc4ccccc4)CC3)n2)cc1", "activation": "inconclusive"}
{"smiles": "O=C(CN1C(=O)C2(OCCO2)c2ccccc21)c1ccc(Br)cc1", "activation": "inconclusive"}
{"smiles": "COc1ccc(S(=O)(=O)N2CCC(C(=O)Nc3ccccc3C)CC2)c2cccnc12", "activation": "inactive: 1%"}
{"smiles": "O=C(NCc1cccnc1)c1cc(-c2ccco2)on1", "activation": "inconclusive"}
{"smiles": "CC1CCC(NC(=O)c2ccc(N3CCCC3=O)cc2)CC1", "note": "(centres undefined)", "activation": "inconclusive"}
{"smiles": "COc1ccc(NC(=O)CCc2nc(-c3ccc(C)cc3)no2)c(OC)c1", "activation": "inconclusive"}
{"smiles": "CCOC(=O)C1=C(C)Nc2nc(C)nn2C1c1ccc(OC)c(OC)c1", "note": "(centres undefined)", "activation": "inconclusive"}
{"smiles": "COc1ccc(Cl)cc1N(C)C(=O)CCc1nc(-c2ccc(C)cc2)no1", "activation": "inconclusive"}
{"smiles": "COc1ccc(C(c2sc3nc(C)nn3c2O)N2CCC3(CC2)OCCO3)cc1", "note": "(centres undefined)", "activation": "inconclusive"}
{"smiles": "Cc1nnc(SC(=O)N2c3ccccc3Sc3ccccc32)s1", "activation": "inactive: -13.5%"}
{"smiles": "COc1cc(Cl)c(C)cc1NC(=O)COC(=O)c1cnc(C)cn1", "activation": "inactive: 6%"}
{"smiles": "O=c1cc[nH]c2cc(C(F)(F)F)ccc12", "activation": "inconclusive"}
{"smiles": "CCN(CC)c1ccc(C(=O)n2cnc3ccccc32)cc1", "activation": "inconclusive"}
{"smiles": "COc1ccccc1-c1nnc(NC(=O)c2ccc(S(=O)(=O)N(C)Cc3ccccc3)cc2)o1", "activation": "inconclusive"}
{"smiles": "CCC1CCc2c(sc3ncnc(N4CCOCC4)c23)C1", "note": "(centres undefined)", "activation": "inconclusive"}
{"smiles": "CC(C)OC(=O)c1nnc(Cc2ccc(Cl)cc2)o1", "activation": "inconclusive"}
{"smiles": "COc1cc(OC)c(NC(=O)CCc2nc(-c3ccc(C)cc3)no2)cc1Cl", "activation": "inconclusive"}
{"smiles": "CC(C)(C)c1ccc2c(c1)N(CC(=O)O)C(=O)CO2", "activation": "inconclusive"}
{"smiles": "CCN(CC)CCNC(=O)c1nn(-c2ccc(C)cc2)c(=O)c2c1c1ccccc1n2C", "activation": "inactive: -12%"}
{"smiles": "CC1=C(C)C(=O)NC(Nc2nc(C)c3cc(C)cc(C)c3n2)N1", "note": "(centres undefined)", "activation": "inactive: -4%"}
{"smiles": "Cn1c(=O)c2c(nc(NC3CCCCC3)n2CC(=O)C23CC4CC(CC(C4)C2)C3)n(C)c1=O", "activation": "inconclusive"}
{"smiles": "CCOC(=O)N1CCC(NC(=O)c2ccc(CS(=O)(=O)c3ccccc3C)o2)CC1", "activation": "inactive: 2%"}
{"smiles": "C#CC(C)(C)NC(=O)c1ccccc1OC", "activation": "inconclusive"}
{"smiles": "CCOCCCNc1nc(=S)[nH]c2cc(OC)c(OC)cc12", "activation": "inconclusive"}
{"smiles": "CC1=C(C(=O)Nc2cccnc2)C(c2ccncc2)n2nnnc2N1", "note": "(centres undefined)", "activation": "inconclusive"}
{"smiles": "CC(C)C1N=C2c3ccccc3N=C(SCc3cc(=O)n4cc(Cl)ccc4n3)N2C1=O", "note": "(centres undefined)", "activation": "inconclusive"}
{"smiles": "O=C(CCCCn1c(=S)[nH]c2ccsc2c1=O)NCc1ccco1", "activation": "inconclusive"}
{"smiles": "COc1ccc2c(c1)CCc1c(C(=O)NCCc3ccc(OC)c(OC)c3)noc1-2", "activation": "inconclusive"}
{"smiles": "Cc1n[nH]c(C)c1S(=O)(=O)N1CCCC(C(=O)N2CCc3ccccc32)C1", "note": "(centres undefined)", "activation": "inconclusive"}
{"smiles": "O=C(Nc1ccc(Cl)cc1)N(Cc1cccnc1)Cc1ccco1", "activation": "inactive: 4%"}
{"smiles": "CC1(C)SC2[C@H](NC(=O)C(NC(=O)N3CCNC3=O)c3ccccc3)C(=O)N2C1C(=O)O", "note": "(some centres undefined)", "activation": "inactive: 1%"}
{"smiles": "CSc1cccc(-n2cc(-c3ccc4c(c3)OCO4)[nH]c2=O)c1", "activation": "inactive: 8%"}
{"smiles": "CCc1ccc(-c2nc(CN3CCC(C(=O)NCc4ccc(F)cc4)CC3)c(C)o2)cc1", "activation": "inconclusive"}
{"smiles": "COc1cccc(Cn2c(-c3nonc3N)nc3ccccc32)c1", "activation": "inconclusive"}
{"smiles": "CCc1ccccc1N(CC)C(=O)c1cn(CC)c(=O)c2cc(OC)c(OC)cc12", "activation": "inconclusive"}
{"smiles": "N#CCSc1nc2[nH]ncc2c(=O)n1-c1ccccc1Br", "activation": "inconclusive"}
{"smiles": "CC[C@H]1OC(=O)C[C@@H](O)[C@H](C)[C@@H](O[C@@H]2O[C@H](C)C[C@H](N(C)C)[C@H]2O)[C@@H](CC=O)C[C@@H](C)C(=O)C=C[C@]2(C)O[C@H]2[C@@H]1C", "activation": "inactive: -6%"}
{"smiles": "COc1cc(NC(=O)CN2CC(c3ccccc3)CC2=O)cc(OC)c1", "note": "(centres undefined)", "activation": "inconclusive"}
{"smiles": "CC(=O)c1sc(Nc2nc3ccc(F)cc3s2)nc1C", "activation": "inconclusive"}
{"smiles": "CN1CCN(C(=O)c2ccc3c(c2)NC(=O)C(N2CCOCC2)S3)CC1", "note": "(centres undefined)", "activation": "inconclusive"}
{"smiles": "COC(=O)c1ccccc1NC(=O)CS(=O)(=O)Cc1nc(-c2ccc(C)cc2)oc1C", "activation": "inconclusive"}
{"smiles": "COc1ccc(N(CC(=O)N2CCC(C)CC2)S(=O)(=O)c2c(C)nn(C)c2C)cc1", "activation": "inconclusive"}
{"smiles": "COC(=O)c1cc2ccsc2n1CC(=O)N1CCCc2ccccc21", "activation": "inconclusive"}
{"smiles": "CCOC(=O)Cc1csc(NC(=O)c2ccc(S(=O)(=O)N3CCCCC3)cc2)n1", "activation": "inconclusive"}
{"smiles": "S=C(c1ccc(N2CCOCC2)cc1)N1CCCCC1", "activation": "inactive: 8%"}
{"smiles": "Cc1cc(C)nc(-n2nc(C)cc2NC(=O)c2ccc(Br)o2)n1", "activation": "inactive: 1.5%"}
{"smiles": "O=C(NCCN1CCCC1)c1ccc(CS(=O)(=O)c2c(Cl)cccc2Cl)o1", "activation": "inactive: 4%"}
{"smiles": "C=CCn1c(=O)[nH]c2cc(C(=O)N3CCN(c4cccc(Cl)c4)CC3)ccc2c1=O", "activation": "inconclusive"}
{"smiles": "COc1ccccc1N1CCN(C(=O)CSc2nc3ccccc3c(=O)n2CC2CCCO2)CC1", "note": "(centres undefined)", "activation": "inconclusive"}
{"smiles": "COc1ccc(C)cc1NC(=O)CN1CCN(CC(=O)Nc2ccccc2F)CC1", "activation": "inconclusive"}
{"smiles": "Cc1c(C(=O)N2CCOCC2)[nH]c2c1C(=O)CC(c1ccc(Cl)cc1)C2", "note": "(centres undefined)", "activation": "inconclusive"}
{"smiles": "CCOC(=O)Cn1c(=O)oc2cc(S(=O)(=O)N3CCc4ccccc43)ccc21", "activation": "inconclusive"}
{"smiles": "CCn1c2ccccc2c2cc(Nc3cc(C)nc4ncnn34)ccc21", "activation": "inconclusive"}
{"smiles": "Cc1cccc(N2CCN(S(=O)(=O)c3ccc4c(c3)CCC(=O)N4)CC2C)c1", "note": "(centres undefined)", "activation": "inconclusive"}
{"smiles": "O=C(Cc1c(C(=O)O)[nH]c2ccc(Cl)cc12)Nc1ccc2c(c1)OCCO2", "activation": "inactive: 6%"}
{"smiles": "CCCC(=O)NC(Nc1ccc(S(=O)(=O)Nc2ncccn2)cc1)(C(=O)OCC)C(F)(F)F", "note": "(centres undefined)", "activation": "inconclusive"}
{"smiles": "COc1ccc(-n2c(C)nc3c(cnn3-c3ccc(Cl)cc3)c2=O)cc1", "activation": "inconclusive"}
{"smiles": "Cn1c(=O)c2sccc2n2c(CCCC(=O)NCc3ccc4c(c3)OCO4)nnc12", "activation": "inactive: 2%"}
{"smiles": "COC(=O)C1Cc2c([nH]c3ccccc23)C(C)N1", "note": "(centres undefined)", "activation": "inconclusive"}
{"smiles": "Cc1nn(C)c(C)c1S(=O)(=O)N(CC(=O)Nc1ccccn1)c1ccc(C(C)C)cc1", "activation": "inconclusive"}
{"smiles": "CCCCC1(Cc2cccc([N+](=O)[O-])c2)C(=O)N(c2ccccc2)N(c2ccccc2)C1=O", "activation": "inactive: -5%"}
{"smiles": "Cc1ccc(C)c(NC(=O)Cn2nnc(C(=O)Nc3c(C)cccc3C)c2N)c1", "activation": "inconclusive"}
{"smiles": "CCCOC1(NC(=O)c2ccccc2)C(C)=CC(=O)C=C1C", "activation": "inactive: -1%"}
